The record followed here is paper PMC8496721.

Protein sequences, listed by entry. Tags and fused reporters are not part of them.
UniProt Q38931: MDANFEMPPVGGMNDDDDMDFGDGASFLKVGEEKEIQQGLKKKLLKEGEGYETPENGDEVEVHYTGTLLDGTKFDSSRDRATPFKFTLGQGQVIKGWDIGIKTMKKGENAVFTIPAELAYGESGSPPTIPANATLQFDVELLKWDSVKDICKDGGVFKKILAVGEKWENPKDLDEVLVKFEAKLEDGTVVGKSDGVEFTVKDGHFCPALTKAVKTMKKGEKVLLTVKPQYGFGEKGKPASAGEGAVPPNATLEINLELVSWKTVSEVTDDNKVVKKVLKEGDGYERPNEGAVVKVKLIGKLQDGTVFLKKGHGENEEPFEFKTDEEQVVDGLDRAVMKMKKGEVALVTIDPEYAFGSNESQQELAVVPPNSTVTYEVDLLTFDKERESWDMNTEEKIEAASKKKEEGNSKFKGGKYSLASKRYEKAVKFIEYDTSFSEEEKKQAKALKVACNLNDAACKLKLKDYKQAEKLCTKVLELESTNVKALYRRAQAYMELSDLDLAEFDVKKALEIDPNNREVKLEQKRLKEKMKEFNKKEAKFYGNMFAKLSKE
UniProt P27323: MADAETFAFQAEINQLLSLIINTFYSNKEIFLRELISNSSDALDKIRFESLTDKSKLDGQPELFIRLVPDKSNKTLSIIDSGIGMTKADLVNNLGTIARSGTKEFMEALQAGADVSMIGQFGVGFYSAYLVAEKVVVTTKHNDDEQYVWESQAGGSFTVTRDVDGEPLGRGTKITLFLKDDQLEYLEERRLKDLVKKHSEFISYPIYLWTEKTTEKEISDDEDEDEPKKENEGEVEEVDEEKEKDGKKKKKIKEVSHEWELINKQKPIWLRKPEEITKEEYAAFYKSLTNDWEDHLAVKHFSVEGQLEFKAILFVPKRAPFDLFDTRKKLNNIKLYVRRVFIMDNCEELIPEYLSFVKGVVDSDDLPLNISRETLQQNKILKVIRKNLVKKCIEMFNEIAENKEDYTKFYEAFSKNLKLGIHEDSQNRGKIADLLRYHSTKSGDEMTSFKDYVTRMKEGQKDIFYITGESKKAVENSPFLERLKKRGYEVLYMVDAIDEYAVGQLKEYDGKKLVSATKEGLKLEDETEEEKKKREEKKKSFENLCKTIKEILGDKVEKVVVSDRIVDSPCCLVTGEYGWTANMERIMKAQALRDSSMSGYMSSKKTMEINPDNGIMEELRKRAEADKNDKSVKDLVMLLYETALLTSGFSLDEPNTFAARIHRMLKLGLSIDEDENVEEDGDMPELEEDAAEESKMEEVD

The target in assay [1] is T1, NBR1 fused to a YFP half (BiFC) (Arabidopsis thaliana) (UniProt Q9SB64).
T1 sequence: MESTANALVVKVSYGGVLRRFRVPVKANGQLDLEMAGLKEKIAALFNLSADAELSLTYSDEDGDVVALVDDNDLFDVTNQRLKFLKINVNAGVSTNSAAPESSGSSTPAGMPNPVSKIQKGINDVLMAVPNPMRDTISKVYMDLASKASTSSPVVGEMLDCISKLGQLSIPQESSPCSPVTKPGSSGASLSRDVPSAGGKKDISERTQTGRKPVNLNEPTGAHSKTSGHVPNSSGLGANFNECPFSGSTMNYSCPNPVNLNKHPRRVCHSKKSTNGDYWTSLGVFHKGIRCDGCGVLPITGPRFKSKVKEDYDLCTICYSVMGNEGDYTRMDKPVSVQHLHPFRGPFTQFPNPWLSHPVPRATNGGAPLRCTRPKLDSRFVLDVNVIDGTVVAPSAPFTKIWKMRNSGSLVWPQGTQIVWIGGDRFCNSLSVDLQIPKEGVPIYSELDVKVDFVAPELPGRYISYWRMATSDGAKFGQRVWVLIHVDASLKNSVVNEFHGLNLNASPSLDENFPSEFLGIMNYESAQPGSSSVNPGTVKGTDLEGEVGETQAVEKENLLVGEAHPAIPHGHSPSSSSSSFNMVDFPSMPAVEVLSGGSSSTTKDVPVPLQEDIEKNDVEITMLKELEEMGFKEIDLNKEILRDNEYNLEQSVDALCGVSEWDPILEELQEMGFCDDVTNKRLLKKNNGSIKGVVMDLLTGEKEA
The assay is described as follows: split reporter; BiFC with YFP halves (2in1 vectors) in agro-infiltrated Nicotiana benthamiana leaves, confocal microscopy 2 d after infiltration.

Assay [2] addresses T2, GFP-ATG8a (Arabidopsis thaliana) (UniProt Q8LEM4).
T2 sequence: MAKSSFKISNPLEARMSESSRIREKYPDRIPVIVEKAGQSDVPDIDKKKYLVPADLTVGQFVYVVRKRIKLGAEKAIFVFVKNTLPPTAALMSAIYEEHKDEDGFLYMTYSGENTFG
In words: co-IP; anti-GFP antibody microbeads (Miltenyi) on total protein extracts of primed, cross-linked GFP-ATG8a or GFP seedlings, 2 d into the HS recovery phase; 50 mM Tris-HCl pH 7.5, 150 mM NaCl, 2% Tween-20; 6 h at 4°C; immunoblot. Background: A western blot detects proteins with antibodies after separation by electrophoresis.

The target in assay [3] is T2, GFP-ATG8a (Arabidopsis thaliana). The assay is described as above. This is another data set of the same source.
Assay [4] has as its target T3, NBR1-GFP (Arabidopsis thaliana) (UniProt Q9SB64).
T3 sequence: T1 sequence
The assay is described as follows: co-IP; anti-GFP antibody beads on total protein extracts of primed, cross-linked pNBR1:NBR1-GFP or 35S:GFP seedlings, 2 d into the HS recovery phase; immunoblot with anti-HSP90 and anti-FBP antibodies.

Like-named read-outs stand apart in the source and are kept apart here. These are yes or no findings as the source states them, for the method shown. In cells and extracts the contact can be indirect. Some binding calls cover weakened binding; strength is not graded here. Tags and fused reporters may be left off the sequences shown.

Regarding “ROF1 fused to a YFP half (BiFC) (from UniProt Q38931 1-551)”, in assay [1], the binding entry was “binds”. ROF1-RFP (from UniProt Q38931 1-551): in assay [2], the binding entry is given as “binds”. As for “HSP90.1 fused to a YFP half (BiFC) (from UniProt P27323 1-700)”, in assay [1], the binding entry is “binds”.

B1: FBP/FBPASE (fructose 1,6-bisphosphatase) (protein, UniProt Q9MA79 1-341)
chain: MDHAADAHRTDLMTITRFVLNEQSKYPESRGDFTILLSHIVLGCKFVCSAVNKAGLAKLIGLAGETNIQGEEQKKLDVLSNDVFVNALVSSGRTSVLVSEEDEEATFVEPSKRGKYCVVFDPLDGSSNIDCGVSIGTIFGIYTLDHTDEPTTADVLKPGNEMVAAGYCMYGSSCMLVLSTGTGVHGFTLDPSLGEFILTHPDIKIPNKGNIYSVNEGNAQNWDGPTTKYVEKCKFPKDGSPAKSLRYVGSMVADVHRTLLYGGIFLYPADKKSPNGKLRVLYEVFPMSFLMEQAGGQAFTGKKRALDLVPEKIHERSPIFLGSYDDVEEIKALYAEEEKKN
B1: the binding result in assay [3] and in assay [4] was “no binding” each time.
